PMC8674339
Results are given in words; binding and its absence hold for the method and conditions named. In cells and extracts the contact can be indirect. Some binding calls cover weakened binding; strength is not graded here. Values belong to the molecule of their own block, whether it stands above or below them.

Protein sequences, listed by entry. Tags and fused reporters are not part of them.
UniProt Q76MZ3: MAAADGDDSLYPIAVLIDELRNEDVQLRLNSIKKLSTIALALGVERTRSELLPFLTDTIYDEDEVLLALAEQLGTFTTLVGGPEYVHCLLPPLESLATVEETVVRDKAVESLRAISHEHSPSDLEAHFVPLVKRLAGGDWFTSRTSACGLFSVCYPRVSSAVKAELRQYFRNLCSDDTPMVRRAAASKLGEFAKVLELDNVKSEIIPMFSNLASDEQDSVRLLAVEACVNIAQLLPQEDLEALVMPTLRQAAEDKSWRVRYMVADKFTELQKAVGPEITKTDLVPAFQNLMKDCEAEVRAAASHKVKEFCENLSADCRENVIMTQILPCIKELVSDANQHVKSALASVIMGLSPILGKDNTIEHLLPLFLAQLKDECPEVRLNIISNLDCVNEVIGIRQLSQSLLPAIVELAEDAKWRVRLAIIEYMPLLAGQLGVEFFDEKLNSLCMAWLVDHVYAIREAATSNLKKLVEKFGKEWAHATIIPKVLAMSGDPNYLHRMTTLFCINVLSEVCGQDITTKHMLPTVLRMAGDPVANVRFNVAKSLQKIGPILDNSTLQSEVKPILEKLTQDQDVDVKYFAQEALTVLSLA
UniProt P70288: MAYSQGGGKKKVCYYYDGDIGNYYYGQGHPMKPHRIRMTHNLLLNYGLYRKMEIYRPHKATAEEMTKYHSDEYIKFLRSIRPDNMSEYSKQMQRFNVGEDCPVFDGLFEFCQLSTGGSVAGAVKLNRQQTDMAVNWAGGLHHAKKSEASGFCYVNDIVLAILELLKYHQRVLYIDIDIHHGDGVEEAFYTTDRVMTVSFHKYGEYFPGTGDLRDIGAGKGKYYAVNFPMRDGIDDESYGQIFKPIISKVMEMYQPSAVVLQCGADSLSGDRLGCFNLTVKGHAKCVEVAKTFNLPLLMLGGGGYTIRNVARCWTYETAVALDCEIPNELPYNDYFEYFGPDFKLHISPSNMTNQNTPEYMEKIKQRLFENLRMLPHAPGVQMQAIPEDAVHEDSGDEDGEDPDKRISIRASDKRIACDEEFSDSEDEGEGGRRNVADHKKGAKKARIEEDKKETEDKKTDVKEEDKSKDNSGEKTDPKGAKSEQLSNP

Biological target: Ppp2r1a (PP2A scaffold protein, structural subunit A) (mouse (endogenous in intestinal organoids and CT26)) (UniProt Q76MZ3)
Assay: co-IP; Ppp2r1a pulldown of CT26 cell lysates, cells treated without and with LB100; western blotting for pRb and pHDAC2

binding: binds
Molecule: phospho-HDAC2 (pHDAC2) (from UniProt P70288 1-488)

binding: binds
B1: phospho-Rb (pRb) (protein, UniProt P13405 1-921)
chain: MPPKAPRRAAAAEPPPPPPPPPREDDPAQDSGPEELPLARLEFEEIEEPEFIALCQKLKVPDHVRERAWLTWEKVSSVDGILEGYIQKKKELWGICIFIAAVDLDEMPFTFTELQKSIETSVYKFFDLLKEIDTSTKVDNAMSRLLKKYNVLCALYSKLERTCELIYLTQPSSALSTEINSMLVLKISWITFLLAKGEVLQMEDDLVISFQLMLCVVDYFIKFSPPALLREPYKTAAIPINGSPRTPRRGQNRSARIAKQLENDTRIIEVLCKEHECNIDEVKNVYFKNFIPFINSLGIVSSNGLPEVESLSKRYEEVYLKNKDLDARLFLDHDKTLQTDPIDSFETERTPRKNNPDEEANVVTPHTPVRTVMNTIQQLMVILNSASDQPSENLISYFNNCTVNPKENILKRVKDVGHIFKEKFANAVGQGCVDIGVQRYKLGVRLYYRVMESMLKSEEERLSIQNFSKLLNDNIFHMSLLACALEVVMATYSRSTLQHLDSGTDLSFPWILNVLNLKAFDFYKVIESFIKVEANLTREMIKHLERCEHRIMESLAWLSDSPLFDLIKQSKDGEGPDNLEPACPLSLPLQGNHTAADMYLSPLRSPKKRTSTTRVNSAANTETQAASAFHTQKPLKSTSLALFYKKVYRLAYLRLNTLCARLLSDHPELEHIIWTLFQHTLQNEYELMRDRHLDQIMMCSMYGICKVKNIDLKFKIIVTAYKDLPHAAQETFKRVLIREEEFDSIIVFYNSVFMQRLKTNILQYASTRPPTLSPIPHIPRSPYKFSSSPLRIPGGNIYISPLKSPYKISEGLPTPTKMTPRSRILVSIGESFGTSEKFQKINQMVCNSDRVLKRSAEGGNPPKPLKKLRFDIEGADEADGSKHLPAESKFQQKLAEMTSTRTRMQKQRMNESKDVSNKEEK
modifications: phosphorylated (pRb); sites not stated
